Paper PMC7493948
These are yes or no findings as the source states them, for the method shown. Binding seen in cells or lysates may run through a third protein. Some binding calls cover weakened binding; strength is not graded here. Sequences can lack the tags named with a protein.

Biological target: Flag-EGFR (epidermal growth factor receptor, Flag-tagged) (UniProt P00533)
Assay: co-IP; HEK293 cells transiently transfected (48 h) with Flag alone, Flag-EGFR or Flag-BMP2; incubated with Fc-IgG1 or Fc-GREM1 (100 ng/ml each) for 1 h at 37 °C; lysates (IP Lysis Buffer) immunoprecipitated with anti-Flag antibody and protein A/G PLUS-agarose; blotted with anti-Fc antibody; only the binder purified

binding: binds
B1: Fc-GREM1 (Gremlin-1 fused to Fc) (Fc fusion, UniProt O60565 25-184)
chain: KKKGSQGAIPPPDKAQHNDSEQTQSPQQPGSRNRGRGQGRGTAMPGEEVLESSQEALHVTERKYLKRDWCKTQPLKQTIHEEGCNSRTIINRFCYGQCNSFYIPRHIRKEEGSFQSCSFCKPKKFTTMMVTLNCPELQPPTKKKRVTRVKQCRCISIDLD
